According to PMC5920098, “Identification of the allosteric P2X7 receptor antagonist [^11C]SMW139 as a PET tracer of microglial activation” (Scientific Reports, 2018):

Experiment: Ex vivo metabolite analysis (plasma and brain) in healthy male Wistar rats
Conditions: rat brain homogenate, MeCN/H2O extraction
Method: In vivo stability of analogues [^11C]1–3 and [^11C]SMW139 was assessed in healthy male Wistar rats at 15 and 45 minutes after injection of 30–40 MBq of formulated tracer. […] Results obtained in plasma correspond with previously reported stability results in rat liver microsomes. A higher level of intact tracer was found in brain (Table 3) for [^11C]1 and [^11C]SMW139 compared with [^11C]2 and [^11C]3. Despite optimisation of the extraction method, the percentage of total radioactivity that could be extracted from brain homogenates was not optimal for all four compounds (59 ± 6% for [^11C]1; 58 ± 7% for [^11C]2; 61 ± 4% for [^11C]3; 62 ± 3% for [^11C]SMW139). Therefore, based on its highest stability in plasma in vivo, [^11C]SMW139 was selected for further in vivo studies. As imaging studies were performed in female rats, plasma metabolites were also determined in two female rats, and no differences were found between plasma metabolism of [^11C]SMW139 in male and female rats (Table S1; Supplementary Information).
For each of the carbon-11 labelled benzamide analogues [^11C]1–3 and [^11C]SMW139, a biodistribution study and metabolite analysis in healthy male Wistar rats was performed, as described in detail in the Supplementary Information. Briefly, tracer distribution in blood, brain, and peripheral organs was measured at 5, 15, 30 and 45 min after intravenous injection of 13–23 MBq of formulated tracer. Metabolite analysis was performed at 15 and 45 min after intravenous injection of 30–40 MBq of formulated tracer in both blood plasma and brain. […]
Ex vivo metabolite analysis
Healthy male and female Wistar rats (254-440 g) were injected with 30-40 MBq (at start of experiment) of formulated tracer in the tail vein under isoflurane anaesthesia. Rats were sacrificed at 15 and 45 min (n = 3 per time point). Blood samples were obtained and the brain was excised. Blood samples were collected in heparin tubes (BD Vacutainer NH 119 I.U., 7 mL, BD Vacutainer Systems, Plymouth, UK) and centrifuged at 4,000 rpm for 5 min at 4 °C (Hettich Universal 32, Andreas Hettich GmbH & Co.KG, Tuttlingen, Germany). Plasma supernatant was separated from blood cells and loaded onto a tC18 Sep-Pak (Waters, Milford, MA, USA), followed by washing with 3 mL of water to obtain the polar fraction. The non-polar fraction was then eluted with 2 mL of MeOH and 1 mL of water and further analysed by HPLC. […] Supernatant was separated from brain precipitate and analysed by HPLC. […]
0.25 mL·min-1. All separate fractions were counted for radioactivity in a Wizard Gammacounter 1470 or 2480 (Wallac/PerkinElmer, Waltham, MA, USA).

Compound | Percentage of total radioactivity extracted from brain homogenates [%]
[11CH3]Oc1ccc(Cl)c(C(=O)NCC23CC4CC(CC(C4)C2)C3)c1 [[^11C]1] | 59 ± 6
[11CH3]Oc1ccc(Cl)c(C(=O)NCC23CC4CC(CC(F)(C4)C2)C3)c1 [[^11C]2] | 58 ± 7
[11CH3]Oc1ccc(Cl)c(C(=O)NCC23CC4CC(F)(CC(F)(C4)C2)C3)c1 [[^11C]3] | 61 ± 4
[11CH3]Oc1ccc(Cl)c(C(=O)NCC23CC4(F)CC(F)(CC(F)(C4)C2)C3)c1 [[^11C]SMW139] | 62 ± 3
